PubChem BioAssay AID493246 | Drosophila RNAi Screening Center | 2011
Assay: 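Genome-wide search for dsRNAs that reduce cell number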 (primary screen). Cell system: Drosophila Kc and S2R+ cells. Reagent: long dsRNA against Drosophila genes. Measured: 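Raw, unnormalised count of remaining cells in each well; per-plate z-scores of cell number underlie the calls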. Reading the numbers: Kc cell number and S2R+ cell number: higher = more cells remaining. Call rule: 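Active when the per-plate z-score of cell number is 3 or more in the direction of fewer cells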.
The deposit covers about 21,000 reagents; below is a random part of those that have a named target and a result. Of all reagents, 429 (2%) got an active call. 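Values are raw and not normalised between plates; calls rest on per-plate z-scores that were not deposited.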 A plus sign joins genes that one reagent is predicted to hit. Not given: the amount of reagent, the time to read-out.

dnr1 [DRSC03948] | Kc cell number, rep 1: 5.59e5; S2R+ cell number, rep 1: 9.01e5; Call: inactive
dnr1 [DRSC04122] | Kc cell number, rep 1: 1.52e6; Kc cell number, rep 2: 1.58e6; S2R+ cell number, rep 1: 1.17e6; S2R+ cell number, rep 2: 1.28e6; Call: inactive
CG14454 [DRSC11711] | Kc cell number, rep 1: 1.53e6; Kc cell number, rep 2: 1.58e6; S2R+ cell number, rep 1: 1.17e6; S2R+ cell number, rep 2: 1.23e6; Call: inactive
Tre1 [DRSC18726] | Kc cell number, rep 1: 1.45e6; Kc cell number, rep 2: 1.47e6; S2R+ cell number, rep 1: 8.41e5; S2R+ cell number, rep 2: 9.35e5; Call: inactive
CG18336 [DRSC06334] | Kc cell number, rep 1: 1.54e6; Kc cell number, rep 2: 1.62e6; S2R+ cell number, rep 1: 1.25e6; S2R+ cell number, rep 2: 1.33e6; Call: inactive
Mcm2 [DRSC16734] | Kc cell number, rep 1: 1.99e6; Kc cell number, rep 2: 2.23e6; S2R+ cell number, rep 1: 1.24e6; S2R+ cell number, rep 2: 1.41e6; Call: inactive
Rab32 [DRSC05146] | Kc cell number, rep 1: 1.45e6; Kc cell number, rep 2: 1.53e6; S2R+ cell number, rep 1: 9.45e5; S2R+ cell number, rep 2: 1.02e6; Call: inactive
Rab32 [DRSC07522] | Kc cell number, rep 1: 1.21e6; Kc cell number, rep 2: 1.25e6; S2R+ cell number, rep 1: 9.98e5; S2R+ cell number, rep 2: 1.05e6; Call: inactive
CG9837 [DRSC16573] | Kc cell number, rep 1: 1.35e6; Kc cell number, rep 2: 1.40e6; S2R+ cell number, rep 1: 1.29e6; S2R+ cell number, rep 2: 1.37e6; Call: inactive
CG11449 [DRSC11662] | Kc cell number, rep 1: 1.64e6; Kc cell number, rep 2: 1.59e6; S2R+ cell number, rep 1: 1.37e6; S2R+ cell number, rep 2: 1.46e6; Call: inactive
CG3008 [DRSC00560] | Kc cell number, rep 1: 1.50e6; Kc cell number, rep 2: 1.41e6; S2R+ cell number, rep 1: 1.13e6; S2R+ cell number, rep 2: 1.25e6; Call: inactive
Pstk + Tim9b [DRSC19504] | Kc cell number, rep 1: 1.56e6; Kc cell number, rep 2: 1.63e6; S2R+ cell number, rep 1: 1.07e6; S2R+ cell number, rep 2: 1.28e6; Call: inactive
Pstk + Tim9b [DRSC20292] | Kc cell number, rep 1: 1.57e6; Kc cell number, rep 2: 1.51e6; S2R+ cell number, rep 1: 1.14e6; S2R+ cell number, rep 2: 1.29e6; Call: inactive
